These are yes or no findings as the source states them, for the method shown. Some results given as binding are weak or reduced against the parent protein; the word gives no strength.

Sequences of proteins named here, by UniProt entry; tags and fusion partners are left off. Residues count along the entry.
UniProt Q63604, residues 32-429: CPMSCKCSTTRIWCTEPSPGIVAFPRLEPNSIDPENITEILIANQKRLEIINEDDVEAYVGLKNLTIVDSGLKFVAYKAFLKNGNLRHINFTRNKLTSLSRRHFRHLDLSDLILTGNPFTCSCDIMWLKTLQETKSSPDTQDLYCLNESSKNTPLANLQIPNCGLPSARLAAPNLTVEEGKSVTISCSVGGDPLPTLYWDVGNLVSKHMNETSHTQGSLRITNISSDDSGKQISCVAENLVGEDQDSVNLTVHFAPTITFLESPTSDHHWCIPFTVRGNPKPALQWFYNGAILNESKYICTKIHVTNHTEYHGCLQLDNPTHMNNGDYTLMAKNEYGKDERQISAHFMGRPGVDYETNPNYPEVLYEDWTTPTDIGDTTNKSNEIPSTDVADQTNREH

The source of these data is patent publication US20090202526A1.

This test addresses Rat trkB (rat) (UniProt Q63604). Put plainly: BIAcore SPR, positive control. A general note: In SPR one partner is held on a chip, and binding of the other changes the refractive index at the surface.

B1: Human NT-4/5 (ligand, UniProt P34130 81-210, looked up)
chain: GVSETAPASRRGELAVCDAVSGWVTDRRTAVDLRGREVEVLGEVPAAGGSPLRQYFFETRCKADNAEEGGPGAGGGGCRGVDRRHWVSECKAKQSYVRALTADAQGRVGWRWIRIDTACVCTLLSRTGRA
For B1, the binding entry is on record as “binds”.
